Results as given in publication PMC6370214.
These are yes or no findings as the source states them, for the method shown. In cells and extracts the contact can be indirect. Some results given as binding are weak or reduced against the parent protein; the word gives no strength. Where a sequence is shown, tags or fusion partners need not be part of it. Blank lines part the entries; values can stand above or below the binder they belong to.

By UniProt entry, the sequences of proteins in these tests, tags left out.
UniProt Q8VIM5: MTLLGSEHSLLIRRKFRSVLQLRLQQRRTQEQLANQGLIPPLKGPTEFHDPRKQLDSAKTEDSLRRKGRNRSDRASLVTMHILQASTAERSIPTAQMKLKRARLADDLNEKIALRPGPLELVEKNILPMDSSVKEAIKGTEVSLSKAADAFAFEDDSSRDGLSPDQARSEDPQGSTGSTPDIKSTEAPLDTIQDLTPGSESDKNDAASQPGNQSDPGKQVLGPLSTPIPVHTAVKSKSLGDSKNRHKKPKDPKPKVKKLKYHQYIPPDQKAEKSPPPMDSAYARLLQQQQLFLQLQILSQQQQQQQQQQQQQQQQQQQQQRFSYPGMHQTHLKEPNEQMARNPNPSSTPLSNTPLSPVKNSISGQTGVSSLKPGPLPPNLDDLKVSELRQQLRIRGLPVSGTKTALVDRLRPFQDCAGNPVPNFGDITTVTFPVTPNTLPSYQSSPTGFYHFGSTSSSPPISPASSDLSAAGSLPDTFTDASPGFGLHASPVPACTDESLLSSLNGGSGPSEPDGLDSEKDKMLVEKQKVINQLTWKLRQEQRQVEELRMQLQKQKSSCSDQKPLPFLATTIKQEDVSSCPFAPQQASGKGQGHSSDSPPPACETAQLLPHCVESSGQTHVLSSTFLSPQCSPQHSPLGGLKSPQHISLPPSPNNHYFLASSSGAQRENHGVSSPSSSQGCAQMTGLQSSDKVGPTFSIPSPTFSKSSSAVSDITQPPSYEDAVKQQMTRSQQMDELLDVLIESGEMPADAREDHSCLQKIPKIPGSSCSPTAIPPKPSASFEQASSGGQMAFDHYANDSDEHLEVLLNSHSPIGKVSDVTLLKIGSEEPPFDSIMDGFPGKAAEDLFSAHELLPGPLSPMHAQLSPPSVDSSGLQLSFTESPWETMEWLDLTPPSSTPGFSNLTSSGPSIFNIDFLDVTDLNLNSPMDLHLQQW
UniProt Q04887: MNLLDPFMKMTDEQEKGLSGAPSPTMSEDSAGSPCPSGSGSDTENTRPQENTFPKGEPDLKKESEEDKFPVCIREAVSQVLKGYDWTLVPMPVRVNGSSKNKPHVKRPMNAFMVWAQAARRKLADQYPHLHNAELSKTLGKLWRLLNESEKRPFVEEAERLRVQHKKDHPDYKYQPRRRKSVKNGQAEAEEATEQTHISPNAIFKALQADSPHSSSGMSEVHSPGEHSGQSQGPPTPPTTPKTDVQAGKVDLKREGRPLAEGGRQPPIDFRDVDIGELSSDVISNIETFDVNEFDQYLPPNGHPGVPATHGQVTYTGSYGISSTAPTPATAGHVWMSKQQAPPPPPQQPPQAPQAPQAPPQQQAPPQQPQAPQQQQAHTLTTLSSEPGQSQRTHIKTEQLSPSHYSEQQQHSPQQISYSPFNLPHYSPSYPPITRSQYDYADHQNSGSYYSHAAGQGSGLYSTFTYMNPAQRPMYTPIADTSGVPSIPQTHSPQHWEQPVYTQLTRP

Columns and labels:
Flag-tagged MYOCD [1] = biological target: Flag-tagged MYOCD (UniProt Q8VIM5); assay: co-IP; HEK293T cells co-transfected with HA-SRF, HA-SOX9, HA-TSHZ3 or HA-TSHZ3-trunc and Flag-MYOCD; Flag-MYOCD immunoprecipitated from nuclear extracts, HA-tagged proteins detected by Western blotting (Fig 6A-C)
Flag-tagged MYOCD [2] = biological target: Flag-tagged MYOCD (UniProt Q8VIM5); assay: co-IP; HEK293T cells transfected with HA-tagged TSHZ3 constructs and Flag-tagged MYOCD; immunoprecipitated with a Flag antibody, then immunoblotting (Fig 5B-E)
Flag-tagged SOX9 = Flag-tagged SOX9 (UniProt Q04887); assay: co-IP; HEK293T cells transfected with HA-tagged TSHZ3 constructs and Flag-tagged SOX9; immunoprecipitated with a Flag antibody, then immunoblotting (Fig 1F-I)

binding (Flag-tagged MYOCD [1]): binds
binding (Flag-tagged MYOCD [2]): binds
binding (Flag-tagged SOX9): binds
B1: TSHZ3 full length, HA-tagged (protein, UniProt Q8CGV9 1-1081)
chain: MPRRKQQAPRRAAAYVSDELKAAALVEDDVEPEEQAADGEPSAKYMCPEKELSKACPSYQNSPAAEFSSHEMDSESHISETSDRMADFESSSIKNEEETKEVQVPLEDTTVSDSLEQMKAVYNNFLSNSYWSNLNLNLHQPSSENNGGSSSSSSSSSSSCGSGSFDWHQSAMAKTLQQVSQNRMLPEPSLFSTVQLYRQSSKLYGSIFTGASKFRCKDCSAAYDTLVELTVHMNETGHYRDDNHETDNNNPKRWSKPRKRSLLEMEGKEDAQKVLKCMYCGHSFESLQDLSVHMIKTKHYQKVPLKEPVTPVAAKIIPAARKKPSLELELPSSPDSTGGTPKATLSDASDALQKNSNPYITPNNRYGHQNGASYAWHFEARKSQILKCMECGSSHDTLQELTAHMMVTGHFIKVTNSAMKKGKPIMETPVTPTITTLLDEKVQSVPLAATTFTSPSNTPASVSPKLAVEIKKEVDKEKAVPDEKPKEREKPSEEEEKYDISSKYHYLTENDLEESPKGGLDILKSLENTVTSAINKAQNGTPSWGGYPSIHAAYQLPNMMKLSLGSSGKSTPLKPMFGNSEIVSPTKTQTLVSPPSSQTSPMPKTNFHAMEELVKKVTEKVAKVEEKMKEPEGKLSPPKRATPSPCSSEQSEPIKMEASSDGSFKSQENSPSPPRDACKEASPSAEPVENGKELVKPLSGGLSGSTAIITDHPPEQPFVNPLSALQSVMNIHLGKAAKPSLPALDPMSMLFKMSNSLAEKAAVATPPPLQAKKAEHLDRYFYHVNNDQPIDLTKGKSDKGCSLGSGLLSPTSTSPATSSSTVTTAKTSAVVSFMSNSPLRENALSDISDMLKNLTESHTSKSSTPSSISEKSDIDGATLEEAEESTPAQKRKGRQSNWNPQHLLILQAQFAASLRQTSEGKYIMSDLSPQERMHISRFTGLSMTTISHWLANVKYQLRRTGGTKFLKNLDTGHPVFFCNDCASQIRTPSTYISHLESHLGFRLRDLSKLSTEQINNQIAQTKSPSEKLVTSSPEEDLGTTYQCKLCNRTFASKHAVKLHLSKTHGKSPEDHLLFVSELEKQ

binding (Flag-tagged MYOCD [1]): binds
B2: HA-SRF (protein, UniProt Q9JM73 1-504)
chain: MLPSQAGAAAALGRGSALGGNLNRTPTGRPGGGGGTRGANGGRVPGNGAGLGQSRLEREAAAAAAPTAGALYSGSEGDSESGEEEELGAERRGLKRSLSEMELGVVVGGPEAAAAAAGGYGPVSGAVSGAKPGKKTRGRVKIKMEFIDNKLRRYTTFSKRKTGIMKKAYELSTLTGTQVLLLVASETGHVYTFATRKLQPMITSETGKALIQTCLNSPDSPPRSDPTTDQRMSATGFEEPDLTYQVSESDSSGETKDTLKPAFTVTNLPGTTSTIQTAPSTSTTMQVSSGPSFPITNYLAPVSASVSPSAVSSANGTVLKSTGSGPVSSGGLMQLPTSFTLMPGGAVAQQVPVQAIHVHQAPQQASPSRDSSTDLTQTSSSGTVTLPATIMTSSVPTTVGGHMMYPSPHAVMYAPTSGLADGSLTVLNAFSQAPSTMQVSHSQVQEPGGVPQVFLTAPSGTVQIPVSAVQLHQMAVIGQQAGSSSNLTELQVVNLDATHSTKSE
